Data reported in paper PMC5014220 (Angewandte Chemie (International Ed. in English), 2016).

Experiment: general procedure: solution-phase peptide synthesis; HATU / DIPEA
[1] = coupling step, HPLC (DAD) and LCMS traces
[2] = late stage modification step, HPLC (DAD) and LCMS traces

Row | Substance | step yield (coupling step) | final HPLC purity [1] | step yield (late stage modification step) | final LC-MS purity [2] | final HPLC purity [2]
1 | PEPTIDE1{[XBoc].F.[Xg4A].[XACBC].[Xg4F].[XACBC].[Xg4L].[XOMe]}$$$$V2.0 | 84% | higher than 95% |  |  | 
2 | PEPTIDE1{[XBoc].F.[Xg4A].[XACBC].[Xg4W].[XACBC].[Xg4L].[XOMe]}$$$$V2.0 | 59% | higher than 98% |  |  | 
3 | PEPTIDE1{[XBoc].F.[Xg4A].[XACBC].[Xg4W].[XACBC].L.[XOMe]}$$$$V2.0 | 68% | higher than 96% |  |  | 
4 | PEPTIDE1{[ac].F.[Xg4A].[XACBC].[Xg4F].[XACBC].[Xg4L].[XOMe]}$$$$V2.0 |  |  | 37% | higher than 95% | 
5 | PEPTIDE1{[XBoc].F.[Xg4A].[XACBC].[Xg4F].[XACBC].L.[XOMe]}$$$$V2.0 | 78% | higher than 95% |  |  | 
6 | PEPTIDE1{[ac].F.[Xg4A].[XACBC].[Xg4W].[XACBC].L.[XOMe]}$$$$V2.0 |  |  | 42% |  | higher than 95%
7 | PEPTIDE1{[ac].F.[Xg4A].[XACBC].[Xg4W].[XACBC].[Xg4L].[XOMe]}$$$$V2.0 |  |  | 32% |  | higher than 95%
8 | PEPTIDE1{[ac].F.[Xg4A].[XACBC].[Xg4F].[XACBC].L.[XOMe]}$$$$V2.0 |  |  | 48% |  | higher than 95%

HELM strings list residues between dots; [ac] is acetyl, [am] amide, other brackets name non-standard units.
